This passage reports binding results from US20040214766A1.

Amino acid sequences for entries named in this document (tags omitted). A change or cut given only in a name is not applied to a line headed by its entry. Chains listed by the source or under a name are the forms on record and can include a tag or linker.
VEGF165 (P15692, form named): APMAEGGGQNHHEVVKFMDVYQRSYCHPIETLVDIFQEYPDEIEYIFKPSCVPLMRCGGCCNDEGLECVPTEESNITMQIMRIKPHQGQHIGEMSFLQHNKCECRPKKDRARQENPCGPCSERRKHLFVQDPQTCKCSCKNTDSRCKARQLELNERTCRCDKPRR
UniProt P49767: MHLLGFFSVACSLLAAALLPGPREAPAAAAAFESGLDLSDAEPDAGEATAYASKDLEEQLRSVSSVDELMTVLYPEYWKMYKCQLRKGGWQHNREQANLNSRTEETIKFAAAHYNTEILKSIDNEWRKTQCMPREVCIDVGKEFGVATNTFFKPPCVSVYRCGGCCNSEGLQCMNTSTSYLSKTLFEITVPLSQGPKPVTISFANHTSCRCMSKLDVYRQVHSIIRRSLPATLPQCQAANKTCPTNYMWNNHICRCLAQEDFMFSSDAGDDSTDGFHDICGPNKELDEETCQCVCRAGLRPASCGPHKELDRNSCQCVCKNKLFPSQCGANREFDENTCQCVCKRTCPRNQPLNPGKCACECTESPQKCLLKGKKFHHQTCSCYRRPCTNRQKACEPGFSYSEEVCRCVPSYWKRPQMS

Results are given in words; binding and its absence hold for the method and conditions named. Binding seen in cells or lysates may run through a third protein. Some results given as binding are weak or reduced against the parent protein; the word gives no strength. For some assays here: Where a sequence is shown, tags or fusion partners need not be part of it.

For experiment [1], the target named is T1, NRP-1-Fc construct (extracellular domain portion of murine NRP-1 fused to the Fc portion of human IgG1) (murine; human) (UniProt P97333).
T1 sequence: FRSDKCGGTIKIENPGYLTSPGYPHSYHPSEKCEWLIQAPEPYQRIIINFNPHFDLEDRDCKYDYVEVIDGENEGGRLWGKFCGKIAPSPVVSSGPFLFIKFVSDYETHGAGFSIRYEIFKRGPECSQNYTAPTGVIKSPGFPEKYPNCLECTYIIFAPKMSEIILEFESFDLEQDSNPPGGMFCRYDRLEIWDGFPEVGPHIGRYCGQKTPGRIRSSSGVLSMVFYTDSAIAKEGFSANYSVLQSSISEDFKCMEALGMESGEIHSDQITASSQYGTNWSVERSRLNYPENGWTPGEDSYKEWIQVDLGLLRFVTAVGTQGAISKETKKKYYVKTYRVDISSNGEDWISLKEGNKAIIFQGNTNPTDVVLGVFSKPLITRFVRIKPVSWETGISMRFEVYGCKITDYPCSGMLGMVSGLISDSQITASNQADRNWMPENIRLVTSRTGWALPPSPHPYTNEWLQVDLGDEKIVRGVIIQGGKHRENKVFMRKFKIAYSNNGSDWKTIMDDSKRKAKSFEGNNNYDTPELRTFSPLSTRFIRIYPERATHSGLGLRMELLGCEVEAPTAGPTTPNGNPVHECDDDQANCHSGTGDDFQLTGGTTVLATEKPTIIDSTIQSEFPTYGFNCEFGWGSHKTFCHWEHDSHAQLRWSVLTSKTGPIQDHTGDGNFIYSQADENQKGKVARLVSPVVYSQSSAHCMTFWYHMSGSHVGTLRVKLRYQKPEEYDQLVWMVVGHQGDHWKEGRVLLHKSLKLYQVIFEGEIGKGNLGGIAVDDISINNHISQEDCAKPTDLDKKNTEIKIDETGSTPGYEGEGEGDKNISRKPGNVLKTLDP
Put plainly: pull-down of 35S-labeled VEGF165 medium with NRP-1-IgG and Protein A-Sepharose, with and without heparin.

Experiment [2] concerns the target T1, NRP-1-Fc construct (extracellular domain portion of murine NRP-1 fused to the Fc portion of human IgG1) (murine; human). Put plainly: pull-down of 35S-labeled VEGF-C medium with NRP-1-IgG and Protein A-Sepharose, SDS-PAGE.
Experiment [3] addresses hNRP-2 a17-IgG fusion protein (extracellular domain of human neuropilin-2, a17 isoform, fused to the human IgG1 Fc tail) (human) [IgG part: P01857]. Put plainly: pull-down of 35S-labeled VEGF-C medium with hNRP-2 a17-IgG and Protein A-Sepharose, SDS-PAGE.
Experiment [4] shares this target. Put plainly: pull-down of 35S-labeled growth factor medium with receptor-IgG fusion and Protein A-Sepharose, SDS-PAGE.
The target of experiment [5] is T1, NRP-1-Fc construct (extracellular domain portion of murine NRP-1 fused to the Fc portion of human IgG1) (murine; human). Described as above.

For the substance “VEGF165 (from UniProt P15692 27-191) (ligand)”, the binding result in experiment [1] was “binds”. In the case of “VEGF-C 29 kD isoform (partially processed form) (from UniProt P49767 32-227) (ligand)”, the binding result in experiment [2] and in experiment [3] was “binds” throughout. As to “VEGF-C (labeled medium of 293EBNA cells transfected with prepro-VEGF-C; mixture of isoforms) (from UniProt P49767 32-419) (ligand)”, the binding result in experiment [4] and in experiment [5] was “binds” in each case.
